PubChem BioAssay AID686938, Drosophila RNAi Screening Center | 2013

Test: 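Looking for CRAC channel components and the factors controlling them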 (primary screen)
Cell system: Drosophila S2R+ cells
Reagent: long dsRNA against Drosophila genes, about 0.25 µg dsRNA per well, roughly 10,000 cells
Time to read-out: 5 days of knock-down before the calcium assay
Treatment: thapsigargin (SERCA pump blocker) to empty calcium stores; entry signal taken 4 min after adding it
Measured: 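Duplicate raw fluo-4 intensities per well from a plate reader, at rest and four minutes after thapsigargin emptied calcium stores; entry-to-rest ratio filled for only some wells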
Reading the numbers: calcium entry signal: higher = stronger calcium signal after store depletion; resting calcium signal: higher = higher resting calcium signal
Units: calcium entry signal in fluorescence units; resting calcium signal in fluorescence units
Hit rule: 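Called when the plate z-score of the entry-to-rest ratio, mean of duplicates, falls below −3; wells with low overall dye signal (Fmax z below −2) or more than five off-targets excluded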
Calls: active = strongly reduced calcium entry; inactive = no strong reduction
The screen tested about 23,000 reagents; below is a random part of those with a known target gene and a result. Over the whole deposit, 75 (0.33%) were called active. 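Raw plate signals without normalisation; calls rest on plate z-scores that were not deposited; ratio present for only 364 wells.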 Not stated in the record: the dose of the treatment.

What did the screen give for CR33315 [DRSC22947]?
calcium entry signal, replicate 1: 2.97e7; calcium entry signal, replicate 2: 4.01e7; resting calcium signal, replicate 1: 1.49e7; resting calcium signal, replicate 2: 1.80e7; Call: inactive

For CG15097 [DRSC06526], what was measured?
calcium entry signal, replicate 1: 2.25e7; calcium entry signal, replicate 2: 2.34e7; resting calcium signal, replicate 1: 1.23e7; resting calcium signal, replicate 2: 1.19e7; Call: inactive

With CG30053 [DRSC07260], how do the results read?
calcium entry signal, replicate 1: 3.27e7; calcium entry signal, replicate 2: 4.14e7; resting calcium signal, replicate 1: 1.78e7; resting calcium signal, replicate 2: 2.01e7; Call: inactive

For Cyp6a13 [DRSC07375], what was measured?
calcium entry signal, replicate 1: 3.72e7; calcium entry signal, replicate 2: 3.48e7; resting calcium signal, replicate 1: 1.52e7; resting calcium signal, replicate 2: 1.69e7; Call: inactive

How did the screen score mRpL4 [DRSC03562]?
calcium entry signal, replicate 1: 3.93e7; resting calcium signal, replicate 1: 2.05e7; Call: inactive

With CG5768 [DRSC15870], how do the results read?
calcium entry signal, replicate 1: 4.15e7; calcium entry signal, replicate 2: 2.63e7; resting calcium signal, replicate 1: 1.76e7; resting calcium signal, replicate 2: 1.37e7; Call: inactive

How did the screen score CG14989 [DRSC08448]?
calcium entry signal, replicate 1: 4.48e7; calcium entry signal, replicate 2: 2.81e7; resting calcium signal, replicate 1: 3.10e7; resting calcium signal, replicate 2: 1.33e7; Call: inactive

What did the screen give for CG8841 [DRSC07286]?
calcium entry signal, replicate 1: 4.32e7; calcium entry signal, replicate 2: 4.18e7; resting calcium signal, replicate 1: 1.68e7; resting calcium signal, replicate 2: 1.80e7; Call: inactive

What did the screen give for mRpL12 [DRSC10467]?
calcium entry signal, replicate 1: 5.37e7; calcium entry signal, replicate 2: 3.28e7; resting calcium signal, replicate 1: 3.42e7; resting calcium signal, replicate 2: 1.37e7; Call: inactive

What is on record for lmd [DRSC15618]?
calcium entry signal, replicate 1: 5.68e7; calcium entry signal, replicate 2: 4.08e7; resting calcium signal, replicate 1: 2.54e7; resting calcium signal, replicate 2: 1.84e7; Call: inactive

Which result is listed for CG4520 [DRSC15590]?
calcium entry signal, replicate 1: 2.47e7; calcium entry signal, replicate 2: 3.76e7; resting calcium signal, replicate 1: 1.29e7; resting calcium signal, replicate 2: 5.53e7; Call: inactive

With Nup54 [DRSC07282], what was measured?
calcium entry signal, replicate 1: 3.34e7; calcium entry signal, replicate 2: 3.71e7; resting calcium signal, replicate 1: 1.54e7; resting calcium signal, replicate 2: 1.74e7; Call: inactive

With Ote [DRSC07498], how do the results read?
calcium entry signal, replicate 1: 3.86e7; calcium entry signal, replicate 2: 3.22e7; resting calcium signal, replicate 1: 1.64e7; resting calcium signal, replicate 2: 1.68e7; Call: inactive

How did the screen score CARPA [DRSC17905]?
calcium entry signal, replicate 1: 3.21e7; calcium entry signal, replicate 2: 3.04e7; resting calcium signal, replicate 1: 1.55e7; resting calcium signal, replicate 2: 1.48e7; Call: inactive

How did the screen score CARPA [DRSC21633]?
calcium entry signal, replicate 1: 2.89e7; calcium entry signal, replicate 2: 4.03e7; resting calcium signal, replicate 1: 1.56e7; resting calcium signal, replicate 2: 1.81e7; Call: inactive

As entered above.
Under “calcium entry signal, replicate 2”, CG30053 [DRSC07260] is entered as 4.14e7
For “resting calcium signal, replicate 1”, Nup54 [DRSC07282] has 1.54e7
